Reference: PubChem BioAssay AID504444 (National Center for Advancing Translational Sciences (NCATS), 2011)
About 7,500 (2.1%) of roughly 360,000 compounds were called active. This list was built around the results that the source calls inconclusive (neither active nor inactive); the mix of calls is not that of the screen. The call rests on the fitted dose curve; in most records, active means well fitted inhibition curve with a large enough effect; inconclusive means small, poorly fitted or top-dose-only effect, or effect the other way; inactive means flat fitted curve, though single readings scatter. A potency beside an inconclusive call is a rough fit, not a confirmed value.

assay: Nrf2 qHTS screen for inhibitors; conditions: A549 ARE-Fluc reporter, luciferase luminescence, 18-24 h; series mostly up to 46 µM; further: nearly all actives have a fitted effect of over 60% in size
How it was run: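 A549 ARE_Fluc cells (5000/well, 5% FBS OPTI-MEM) pre-incubated 2 h, then treated with compounds 18-24 h at 37C/5% CO2 in concentration-response. CellTiter-Fluor viability read first; BugLite luciferase luminescence after 15 min at room temperature gives Nrf2 activity.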
Potency means the concentration at half of the fitted maximal effect.

SMILES | Potency
CCCC1=Nc2cc(C(=O)NCCOC)ccc2Sc2ccccc21 | inconclusive: 2.59 µM [activator, full curve, poor fit]
O=C(Nc1ccc(N2CCN(Cc3ccccc3F)CC2)cc1)c1ccccc1[N+](=O)[O-] | inactive
CCOc1ccc(C2CC(c3cccc(C)c3)n3nc(N)nc3N2)cc1 (stereo not given) | inconclusive: 18.4 µM [falling, single point]
CCNCC(=O)N1c2ccccc2CCc2ccc(NC(C)=O)cc21 | inconclusive: 0.0052 µM [falling, full curve, poor fit]
CC(C)(CO)NCC(=O)Nc1cc(C(F)(F)F)cc(NC(=O)CNC(C)(C)CO)c1Cl | inactive
Cc1ccc(S(=O)(=O)N2CC(O)C[C@H]2C(=O)OCC(=O)N2CCN(c3ccc(F)cc3)CC2)cc1C (stereo not given in full) | active: 16.4 µM
Cc1cccc(S(=O)(=O)c2cn(C)c3cc(N4CCC(C)CC4)c(F)cc3c2=O)c1 | inconclusive: 29.1 µM [activator, single point]
CC1CNCCN1S(=O)(=O)c1cccc2cnccc12 (stereo not given) | active: 18.4 µM
CC(=O)Nc1ccc(NC(=O)c2cc(-c3ccc4c(c3)OCCO4)on2)cc1 | inconclusive: 0.651 µM [activator, full curve]
COCCC(=O)N1CCC(Oc2ccc(C(=O)NC3CCOC(C)(C)C3)cc2)CC1 (stereo not given) | inactive
Cc1nn(C(C)C(=O)NC2CCCCCC2)c(=O)c2nn(-c3ccccc3)c(C)c12 (stereo not given) | inconclusive: 14.6 µM [activator, partial curve]
COc1cc(C(C(=O)NC2CCCCC2)N(C(=O)Cc2c[nH]c3ccccc23)c2ccccc2C)cc(OC)c1OC (stereo not given) | inactive
Cc1ccc(CNC(=O)CN2C(=O)C3(SCC(=O)N3c3ccc(F)c(F)c3)c3ccccc32)cc1 (stereo not given) | inactive
COc1ccc(-c2nc(Cn3c(SCc4ccccc4F)nc4cccnc43)c(C)o2)cc1 | inconclusive: 16.4 µM [falling, single point]
COc1cc(C(=O)NCC(=O)N/N=C/c2ccc(-c3cccc([N+](=O)[O-])c3)o2)cc(OC)c1OC | inconclusive: 23.1 µM [falling, single point]
CCOc1cccc(CNc2ccc(O)cc2)c1OCc1ccc(Cl)cc1 | inconclusive: 25.9 µM [falling, single point]
O=c1cc(NS(=O)(=O)c2ccccc2)nc(SCc2ccc(Cl)cc2)[nH]1 | inactive
COC(=O)c1ccccc1NC(=O)C1CCCN(c2nnc(C)c3c(C)n(-c4ccccc4)nc23)C1 (stereo not given) | inconclusive: 9.2 µM [activator, partial curve]
O=C(NC1CCCC1)C(c1c[nH]c2ccccc12)N(C(=O)Cn1nnc(-c2ccc(Cl)cc2)n1)c1ccccc1 (stereo not given) | inconclusive: 9.2 µM [falling, partial curve, poor fit]
O=c1c2ccccc2nnn1CSc1ccccc1F | inconclusive: 1.64 µM [activator, partial curve, poor fit]

SMILES | Potency
CC(C)C[C@H](NC(=O)OC(C)(C)C)C(=O)N/N=C/C1=Cc2ccccc2OC1C (stereo not given in full) | active: 20.6 µM
N/C(=N\OC(=O)c1cc(Br)ccc1Cl)c1cccnc1 | inconclusive: 10.3 µM [activator, partial curve]
CCc1ccc(NC(=O)CSc2ncc(S(=O)(=O)c3cc(C)ccc3C)c(=O)[nH]2)cc1 | inactive
CCn1cc(C(=O)O)c(=O)c2cc(F)c(N3CCN(C(=S)NC(=O)c4ccc(Br)cc4)CC3)cc21 | inconclusive: 25.9 µM [falling, single point]
Cc1cc(C(=O)NCCCn2ccnc2)sc1-c1ccccc1 | inconclusive: 29.1 µM [falling, single point]
O=C(C1=C[C@H](c2ccc(C(F)(F)F)cc2)C[C@H](OCc2ccc(CO)cc2)O1)N1CCN(Cc2ccccc2)CC1 | inconclusive: 14.6 µM [falling, partial curve]
O=C(Nc1nc(-c2ccc(-c3ccccc3)cc2)cs1)C1CCCO1 (stereo not given) | inconclusive: 29.1 µM [falling, single point]
NNC(=O)c1cc2nc(-c3cccs3)cc(C(F)(F)F)n2n1 | inconclusive: 4.11 µM [activator, partial curve, poor fit]
CCN(C(=O)COc1ccc(F)cc1Br)c1c(N)n(Cc2ccccc2)c(=O)[nH]c1=O | inconclusive: 36.6 µM [falling, partial curve, poor fit]
Cc1ccc(C(c2nnnn2Cc2cccs2)N2CCN(C(=O)c3ccco3)CC2)cc1 (stereo not given) | inconclusive: 6.51 µM [falling, full curve, poor fit]
Cc1ccccc1S(=O)(=O)NCc1ccc(N2CCN(C)CC2)cc1 | inconclusive: 29.1 µM [activator, single point]
CC(C)(C)NC(=O)CSc1ncnc2c1nnn2Cc1ccccc1Cl | inconclusive: 29.1 µM [falling, single point]
COc1ccc(NC(=O)Nc2nnc(-c3ccccc3F)s2)cc1 | inconclusive: 20.6 µM [activator, partial curve, poor fit]
CC1CCN(c2nc3ccc(C(=O)NCCc4ccc(S(N)(=O)=O)cc4)cc3s2)CC1 | inconclusive: 0.82 µM [activator, full curve]
Cc1cc(N/N=C/c2ccc(N(C)C)cc2)c2ccccc2n1 | inconclusive: 18.4 µM [activator, single point]
O=C(Nc1cc2ccccc2oc1=O)C1CCCCC1 | inconclusive: 0.82 µM [activator, full curve]
O=C(Cn1c(=O)oc2cc(S(=O)(=O)N3CCCCC3)ccc21)NCc1ccc(F)cc1 | inconclusive: 29.1 µM [falling, single point]
Cc1ccc2nc(SCC(=O)NCc3ccco3)c(C#N)cc2c1 | inconclusive: 29.1 µM [activator, single point]
COCCn1c(/C=C/c2ccccc2)nc2ccccc21 | inconclusive: 9.2 µM [activator, partial curve]
O=C(NCCNc1ccnc2cc(Cl)ccc12)c1ccccc1F | active: 18.4 µM

Quoted at random: 3 entries already listed, in no set order.
SMILES | Potency
COC(=O)c1ccccc1NC(=O)C1CCCN(c2nnc(C)c3c(C)n(-c4ccccc4)nc23)C1 (stereo not given) | inconclusive: 9.2 µM [activator, partial curve]
CCCC1=Nc2cc(C(=O)NCCOC)ccc2Sc2ccccc21 | inconclusive: 2.59 µM [activator, full curve, poor fit]
NNC(=O)c1cc2nc(-c3cccs3)cc(C(F)(F)F)n2n1 | inconclusive: 4.11 µM [activator, partial curve, poor fit]
